Paper PMC7819943, “Rice protein-binding microarrays: a tool to detect cis-acting elements near promoter regions in rice”
The list shows a part of the results.

Sequences of proteins named here, by UniProt entry; tags and fusion partners are left off.
UniProt Q0JBA9, entry or part of it: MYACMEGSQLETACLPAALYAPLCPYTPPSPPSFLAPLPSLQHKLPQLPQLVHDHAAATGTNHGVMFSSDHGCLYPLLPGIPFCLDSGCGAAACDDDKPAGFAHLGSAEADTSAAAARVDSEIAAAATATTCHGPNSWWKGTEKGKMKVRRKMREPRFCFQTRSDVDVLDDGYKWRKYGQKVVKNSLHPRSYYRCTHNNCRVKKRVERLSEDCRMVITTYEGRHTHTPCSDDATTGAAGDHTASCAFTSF

target: OsWRKY34 (Oryza sativa, UniProt Q0JBA9 1-250); test: protein-binding microarray (RPBM); PBS, 2% BSA, 51.3 ng/ul salmon testes DNA, 50 uM zinc acetate, 200 nM TF, 25 C, 1 h; high values mean tight binding; details: protein: recombinant; tags: N-terminal polyhistidine and DsRed monomer fusion (pET32a); label: CyDye5-dUTP incorporated in the synthesized complementary strand; 3' TTTTT single-stranded linker to array surface; dsDNA, one strand shown
Procedure, shortened: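 Binding signal here means per-feature fluorescence intensity in arbitrary units. The values were read on an Axon 4000B scanner after a custom Agilent array, double-stranded by primer extension with Cy5-dUTP, was incubated with 200 nM protein at 25 °C for 1 h in PBS with 2% BSA, salmon testes DNA and 50 µM zinc acetate, then washed. The proteins were transcription factors with an N-terminal polyhistidine tag and DsRed, expressed in E. coli BL21-CodonPlus and purified on Ni–NTA.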

Sequence	binding signal
TCTGGAGTGGATCTTTGTAATAATTGGTTGTAGTTCTTTTCGGAGTCACCTAGTGCAG	11400 fluorescence intensity (a.u.)
TATTTGACTTCCGGCTTTTGTTTCCTTGATACTTTACTCTCGGAGTCACCTAGTGCAG	9780 fluorescence intensity (a.u.)
TCCGACGTGACGGGTTAGGTCAAAGCTTGTGTGGGGCTGGCGGAGTCACCTAGTGCAG	8340 fluorescence intensity (a.u.)
TCTTTAGTTCCCAATACGACTATTTAGTTTCCCTATGCACCGGAGTCACCTAGTGCAG	8400 fluorescence intensity (a.u.)
TGTTTGACCAATTTAGTGTAGTGTTTTGTTCTGGTCACAACGGAGTCACCTAGTGCAG	12800 fluorescence intensity (a.u.)
CGCTCCGTACTCCATCTCATCCCCGGCCGCCACTGCCGACCGGAGTCACCTAGTGCAG	9140 fluorescence intensity (a.u.)
TTAGGACCATGTCACTGCCGTCACGTTTTCCATCCATATCCGGAGTCACCTAGTGCAG	8130 fluorescence intensity (a.u.)
CCCACATTTTTTCTTCTCACTTATATGTGGGTCCCATAATCGGAGTCACCTAGTGCAG	8640 fluorescence intensity (a.u.)
TGACTGGGTTTTTCGAATATGTTATTTGCCTGATGCAAACCGGAGTCACCTAGTGCAG	8960 fluorescence intensity (a.u.)
CGTGCTGCTCCGGCAATTCTCCCTCTACGTCGTTCTCGCGCGGAGTCACCTAGTGCAG	10200 fluorescence intensity (a.u.)
TGTATCGCTCCGTTTTCCGTGTTTAACTGTTCACGCTGCGCGGAGTCACCTAGTGCAG	9220 fluorescence intensity (a.u.)
AATTTACGGTCAAACTTTGCCCAGCATCTTCATTTTTAGCCGGAGTCACCTAGTGCAG	8560 fluorescence intensity (a.u.)
CCCATTTAAACGGTCATTGCTTAATTTTCTTGTAAGTTTTCGGAGTCACCTAGTGCAG	10600 fluorescence intensity (a.u.)
AGACTTCCACCTCACCCCTACCCCGACCGTGCACCAACCCCGGAGTCACCTAGTGCAG	10700 fluorescence intensity (a.u.)
TAGCTAGAGTTGCAAGTTTGTTGGAGGATGTTTTTCTCTTCGGAGTCACCTAGTGCAG	8420 fluorescence intensity (a.u.)
ATCTTTCTCACAAAGTTTCTTGGTTCTGTGTCCAAGCTTACGGAGTCACCTAGTGCAG	8850 fluorescence intensity (a.u.)
AGGGAGAGAGAGAGAGAGAGAGAGAGAGGGGCAGCCACTCCGGAGTCACCTAGTGCAG	8160 fluorescence intensity (a.u.)
CTGCGGCCATCGTCCTGTTCCTCTTGGCCTCGCGTGCAGTCGGAGTCACCTAGTGCAG	9130 fluorescence intensity (a.u.)
ACGACAGATGCCGGTTTGTGATCATTTGTGTTGTTTAATTCGGAGTCACCTAGTGCAG	11200 fluorescence intensity (a.u.)
CCTGGTACACTACCTACCCTTTCTTTTGTTGTCCAATTCACGGAGTCACCTAGTGCAG	9990 fluorescence intensity (a.u.)
TTTTAATCTCATTTTTTTTAACGGTTTTGCTATAATTTTTCGGAGTCACCTAGTGCAG	8850 fluorescence intensity (a.u.)

Random excerpt: 5 records from the list, in no set order.
Sequence	binding signal
AGGGAGAGAGAGAGAGAGAGAGAGAGAGGGGCAGCCACTCCGGAGTCACCTAGTGCAG	8160 fluorescence intensity (a.u.)
TTTTAATCTCATTTTTTTTAACGGTTTTGCTATAATTTTTCGGAGTCACCTAGTGCAG	8850 fluorescence intensity (a.u.)
TGTTTGACCAATTTAGTGTAGTGTTTTGTTCTGGTCACAACGGAGTCACCTAGTGCAG	12800 fluorescence intensity (a.u.)
ACGACAGATGCCGGTTTGTGATCATTTGTGTTGTTTAATTCGGAGTCACCTAGTGCAG	11200 fluorescence intensity (a.u.)
TTAGGACCATGTCACTGCCGTCACGTTTTCCATCCATATCCGGAGTCACCTAGTGCAG	8130 fluorescence intensity (a.u.)

(list continues)

Sequence	binding signal
ATTCGTCGTCGTCGTTGTTTTTTTCAACGTTGCAAATTGTCGGAGTCACCTAGTGCAG	8090 fluorescence intensity (a.u.)
AGTGACCCTTATCTCTTCACCTATCTCTCTCCCTTCCCCTCGGAGTCACCTAGTGCAG	9580 fluorescence intensity (a.u.)
CGTCCTCGAGTGCTGCCATGATAACCCAATCCACTAATTACGGAGTCACCTAGTGCAG	11500 fluorescence intensity (a.u.)
AGGCAACACATACAATGTATCACCTCTAACACACAAATACCGGAGTCACCTAGTGCAG	8410 fluorescence intensity (a.u.)
AAAAACTATTGACAAATGTAGACGTTACCAGTTTTTTCTACGGAGTCACCTAGTGCAG	8160 fluorescence intensity (a.u.)
CATTTTGAATATGGACAGTGTCGTTTTTTTCCCCTTAGAGCGGAGTCACCTAGTGCAG	8860 fluorescence intensity (a.u.)
GGGGAGGAATTTTTATGCTATTTTTTTTTCTTTTTTACCGCGGAGTCACCTAGTGCAG	12900 fluorescence intensity (a.u.)
GAAACCGTCGTAATACTCTCCGTCTTCCCATTCCAGTTCCCGGAGTCACCTAGTGCAG	8860 fluorescence intensity (a.u.)
CACCACACTTGACTACCTAACACCCACCAAGTACTCTTTTCGGAGTCACCTAGTGCAG	8370 fluorescence intensity (a.u.)
TTTTCACTAGAGTTTTGAACCATTGATTTCACATTTTTCCCGGAGTCACCTAGTGCAG	8260 fluorescence intensity (a.u.)
GCTGTGTCCCTTCACAGTTTCATTTGACCATTTTCTTCTTCGGAGTCACCTAGTGCAG	12500 fluorescence intensity (a.u.)
GCGACGCTACCATTTCCGTCCGTTTGTTCAACCAACTCTCCGGAGTCACCTAGTGCAG	8910 fluorescence intensity (a.u.)
GGCACGCGTGGAAATCGTTTCTACATCACACTGCCATATGCGGAGTCACCTAGTGCAG	10600 fluorescence intensity (a.u.)
TTATATGTTTAACTCAAAATTTTCCTTCAGTTTTTACTCACGGAGTCACCTAGTGCAG	9580 fluorescence intensity (a.u.)
CGTTTAGCTTTCGTTTTGTGCACGGCGGGCGAGCTGACCGCGGAGTCACCTAGTGCAG	9100 fluorescence intensity (a.u.)
CACCGTCGCCGGGACACACGCCGCCGCACCGCCTCCACCACGGAGTCACCTAGTGCAG	8390 fluorescence intensity (a.u.)
CTACAACTCATATGTCGCTTGACTTTTTTTTTTTGTCAAACGGAGTCACCTAGTGCAG	11300 fluorescence intensity (a.u.)
AATTGCATATACTGCTCATCTACTGCTTCATCTGTATGCACGGAGTCACCTAGTGCAG	9130 fluorescence intensity (a.u.)
AAAACCCCTCGTCTCCTCTCTCTTCTCTCGCCGTCTGCCGCGGAGTCACCTAGTGCAG	8370 fluorescence intensity (a.u.)
CGTTTTTGGCTATTTTTAATTTTTTTTTCTAATTTCTTTTCGGAGTCACCTAGTGCAG	9040 fluorescence intensity (a.u.)
AGCGCCAACAAGAATCTAGAGATAGTGGTCTTGTTTACTTCGGAGTCACCTAGTGCAG	8900 fluorescence intensity (a.u.)

Sequence	binding signal
ACTGTTTATAGGGTAGGGGTAAGGTTGTGTTCATATAGGTCGGAGTCACCTAGTGCAG	11700 fluorescence intensity (a.u.)
GGTGAACTTATTCCAATCTACAACAACAGTACGCACTTTCCGGAGTCACCTAGTGCAG	9670 fluorescence intensity (a.u.)
GCTTGACGCGTCGCTGATTCCGCCACTGATCATTTTTTTTCGGAGTCACCTAGTGCAG	11800 fluorescence intensity (a.u.)
TTTCATCGATTAATGTCAATATTGGATTATGTCTACATAACGGAGTCACCTAGTGCAG	8300 fluorescence intensity (a.u.)
GTTAGCTAGCCACACACCACCTCACTCGTGTTAGCTCGGACGGAGTCACCTAGTGCAG	8700 fluorescence intensity (a.u.)
CCGCCGCCCCAGCCGCCGTTGTCCTTCTTGCCCTTGCTCACGGAGTCACCTAGTGCAG	11800 fluorescence intensity (a.u.)
TTTCTTTGTGTTCTTTGATTTGTTCTTGGCAATCGCATCACGGAGTCACCTAGTGCAG	8500 fluorescence intensity (a.u.)
ATTATATGGGCCGCACTTACCACATTCGCTTTCCGGCCCACGGAGTCACCTAGTGCAG	11500 fluorescence intensity (a.u.)
CCGACTGATTATGCCGCCGCCGACTGGTGCTTTTATCTTCCGGAGTCACCTAGTGCAG	9300 fluorescence intensity (a.u.)
AGTCACTGGCCACCAATGATTTGCAGTAGTAACAGATATACGGAGTCACCTAGTGCAG	8190 fluorescence intensity (a.u.)
TTCGGTTGAACCTCGTCGATCTCTATCTTTTTCTTACTCTCGGAGTCACCTAGTGCAG	8250 fluorescence intensity (a.u.)
CGACACGGTCTCTAAAACACAACTTTGACTTCTTTTTTCTCGGAGTCACCTAGTGCAG	9090 fluorescence intensity (a.u.)
TGGTACTATACCTGTCTTGGCCGTTTCCTTTGCTGGTTGTCGGAGTCACCTAGTGCAG	8410 fluorescence intensity (a.u.)
GGCAGTATTGTGGGTGGTTTCGTCCGACGTGGAGGATTGACGGAGTCACCTAGTGCAG	10400 fluorescence intensity (a.u.)
GTCAATTTGGTTTGTAATCTTGTAGTAGATCTGTTTGTACCGGAGTCACCTAGTGCAG	9390 fluorescence intensity (a.u.)
GAATTTCATATGATTTTTTCGATAACTATTCATATGATCCCGGAGTCACCTAGTGCAG	8990 fluorescence intensity (a.u.)
ACAAAACATGGTCGTCACAGTTGGGTTCAGGCTTTAATTTCGGAGTCACCTAGTGCAG	9810 fluorescence intensity (a.u.)
TTGGAGGGTGTTGACCTAGTCTGTAGGGTTGACGTGACGCCGGAGTCACCTAGTGCAG	8460 fluorescence intensity (a.u.)
AAGCAGAGGAAGAGAACCCATCCATCCAACCATTCATAAACGGAGTCACCTAGTGCAG	9130 fluorescence intensity (a.u.)
CTCGCGTCCGCTGCCTATTTCTGCCTCCGCCACGCCCACGCGGAGTCACCTAGTGCAG	10700 fluorescence intensity (a.u.)
CTAATCCCCTCTAGCTAGCCTCTTTTTTCTCCATTTGTTTCGGAGTCACCTAGTGCAG	11100 fluorescence intensity (a.u.)

Individual results from the list:
Entry for CTCGCGTCCGCTGCCTATTTCTGCCTCCGCCACGCCCACGCGGAGTCACCTAGTGCAG under binding signal: 10700 fluorescence intensity (a.u.)
Entry for CTAATCCCCTCTAGCTAGCCTCTTTTTTCTCCATTTGTTTCGGAGTCACCTAGTGCAG under binding signal: 11100 fluorescence intensity (a.u.)

Next part:

Sequence	binding signal
TCGGAGAGGGGCTTGTTCGTTTCTTCTTCCTCGCGCCGCGCGGAGTCACCTAGTGCAG	9950 fluorescence intensity (a.u.)
TTTACAATGGTATCTATGTGTTGTTTTTGTGTGTGTGTGTCGGAGTCACCTAGTGCAG	10100 fluorescence intensity (a.u.)
GGATGCTTTTGCTGTGCCGGCGCCGCGTGGTTCTTCGTTTCGGAGTCACCTAGTGCAG	9030 fluorescence intensity (a.u.)
AATCTACACCCCTAAACCTTTCTATGACGTTACAACGCACCGGAGTCACCTAGTGCAG	9050 fluorescence intensity (a.u.)
ATCCATTTGACACACGAACACACACATACACTACACTCTCCGGAGTCACCTAGTGCAG	9640 fluorescence intensity (a.u.)
CTGGTATTTAAATCGCACGCGTTCCTCAGCCACCGCCCTCCGGAGTCACCTAGTGCAG	9750 fluorescence intensity (a.u.)
CGGGTTTGATTTGATTTGATTTTGATTTTGATTTGCTTCTCGGAGTCACCTAGTGCAG	8190 fluorescence intensity (a.u.)
GAAAACGGCGTCTGCCACGTGTACACCACTCCTCTGTCTACGGAGTCACCTAGTGCAG	9260 fluorescence intensity (a.u.)
CTAGGGCGTTAGAGGGCTCGGGAGGGCTCGGCGAGATGGGCGGAGTCACCTAGTGCAG	8960 fluorescence intensity (a.u.)
TCTATATCTACTTAAGCCCCTTCATTCCCGCGTATTCTCCCGGAGTCACCTAGTGCAG	8120 fluorescence intensity (a.u.)
CGCGTGTTCTCTTCTCCTGGCTCGATTGCGTGTTGTAGATCGGAGTCACCTAGTGCAG	8500 fluorescence intensity (a.u.)
CGCCACCGTCCTGCTCACCGGCGTTCCGCCGGAACGACTTCGGAGTCACCTAGTGCAG	9640 fluorescence intensity (a.u.)
CATGACCAAGGTTCGTTATTATCCCTCTTTTCACATTTGTCGGAGTCACCTAGTGCAG	8260 fluorescence intensity (a.u.)
CAGGGGCATTTCCGTCCAGGATGGTATTTTGGCGAAGACACGGAGTCACCTAGTGCAG	8260 fluorescence intensity (a.u.)
ACCTCCGCCTCGTCGCCCGCTTCGCCCATCGCCATCGCGCCGGAGTCACCTAGTGCAG	8670 fluorescence intensity (a.u.)
GTTTATTTTAGGACATTGTAATAGGTGGTTGATTTATTTTCGGAGTCACCTAGTGCAG	8380 fluorescence intensity (a.u.)
ACCTGTATCATCATTAGCTGTATTCTGCCAAGTTCATAAACGGAGTCACCTAGTGCAG	8950 fluorescence intensity (a.u.)
CGGCTGGGTGGTGGTCTTCTTCTTCTGCTGCTGCTGCCGCCGGAGTCACCTAGTGCAG	9350 fluorescence intensity (a.u.)
AGAGAGAGAGAGCGGACTTCACCGCATCGGTCAACGGGTACGGAGTCACCTAGTGCAG	8710 fluorescence intensity (a.u.)
TTCAGCAGCACCCACCTTCCCGATGTTTCTTGCCAACTTTCGGAGTCACCTAGTGCAG	11300 fluorescence intensity (a.u.)
GCCTATATGACGGTGTTGACTCGGTCTTCGTCCCACGTGTCGGAGTCACCTAGTGCAG	10000 fluorescence intensity (a.u.)
